PubChem BioAssay AID1508597 – Cure First – 2020
Screen: 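Knock-downs altering ovarian cancer cell survival with or without PARP inhibitor rucaparib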 (primary screen). Cells: human ovarian carcinoma lines grown from tumours: OCI-P5x (papillary serous) and OCI-C5x (clear cell). Reagents: siRNA pool against human genes, 1.25 pmol siRNA per well. Duration: 72 h or 96 h, depending on the cell culture. Conditions: rucaparib 20 µM (about IC30) or vehicle, present until read-out. Rucaparib or vehicle: Rucaparib. Cell line: OCI-P5x (serous). Read-out: 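ATP luminescence measured at 72 or 96 h according to the culture, then normalised and expressed as percent viability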. Reading the numbers: viability, normalised: higher = more viable cells remaining. Active means: 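Active when normalised viability falls below 80 percent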. Calls: active = viability under 80%; inactive = viability 80% or more.
Shown is a random part of the about 2,100 reagents, under one of the conditions tested. 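Calls flag viability under 80% in either arm, not effects specific to rucaparib; the reference for percent is not stated.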 Reagents against one gene are numbered here. Some reagents were tested in more than one well and are listed for each. The record does not give: the 100% reference.

gene symbol	reagent	technical replicate	viability, normalised (%)	outcome
KDM5A (GeneID 5927)	1	1	49	active
KDM5A (GeneID 5927)	1	2	41.5	active
KDM5A (GeneID 5927)	1	3	48.5	active
MAP3K12 (GeneID 7786)	1	1	71.5	active
MAP3K12 (GeneID 7786)	1	2	65.4	active
MAP3K12 (GeneID 7786)	1	3	68.3	active
CDKL1 (GeneID 8814)	1	1	98.2	inactive
CDKL1 (GeneID 8814)	1	2	90.9	inactive
CDKL1 (GeneID 8814)	1	3	99.1	inactive
YES1 (GeneID 7525)	1	1	53.9	active
YES1 (GeneID 7525)	1	1	82	inactive
YES1 (GeneID 7525)	1	2	55.8	active
YES1 (GeneID 7525)	1	2	104	inactive
YES1 (GeneID 7525)	1	3	59.3	active
YES1 (GeneID 7525)	1	3	62	active
TADA1 (GeneID 117143)	1	1	62.4	active
TADA1 (GeneID 117143)	1	2	64.4	active
TADA1 (GeneID 117143)	1	3	64.8	active
RIOX1 (GeneID 79697)	1	1	59	active
RIOX1 (GeneID 79697)	1	2	66.1	active
RIOX1 (GeneID 79697)	1	3	75.7	active
CDH1 (GeneID 999)	1	1	69.3	active
CDH1 (GeneID 999)	1	2	60.6	active
CDH1 (GeneID 999)	1	3	60.9	active
CDK19 (GeneID 23097)	1	1	58.4	active
CDK19 (GeneID 23097)	1	2	58	active
CDK19 (GeneID 23097)	1	3	63.3	active
ABRAXAS1 (GeneID 84142)	1	1	46.8	active
ABRAXAS1 (GeneID 84142)	1	2	68.4	active
ABRAXAS1 (GeneID 84142)	1	3	61.2	active
ABRAXAS1 (GeneID 84142)	2	1	75.9	active
ABRAXAS1 (GeneID 84142)	2	2	89.4	inactive
ABRAXAS1 (GeneID 84142)	2	3	79.5	active
SHPRH (GeneID 257218)	1	1	46.8	active
SHPRH (GeneID 257218)	1	2	51.5	active
SHPRH (GeneID 257218)	1	3	56.8	active
PFKFB2 (GeneID 5208)	1	1	44.3	active
PFKFB2 (GeneID 5208)	1	2	59.6	active
PFKFB2 (GeneID 5208)	1	3	44.2	active
SLC17A1 (GeneID 6568)	1	1	48.7	active
SLC17A1 (GeneID 6568)	1	2	58.7	active
SLC17A1 (GeneID 6568)	1	3	65.5	active
RAE1 (GeneID 8480)	1	1	68.6	active
RAE1 (GeneID 8480)	1	2	61.4	active
RAE1 (GeneID 8480)	1	3	58	active
LIMK1 (GeneID 3984)	1	1	82.3	inactive
LIMK1 (GeneID 3984)	1	2	93.8	inactive
LIMK1 (GeneID 3984)	1	3	77.3	active
NCOA5 (GeneID 57727)	1	1	52.8	active
NCOA5 (GeneID 57727)	1	2	34.9	active
NCOA5 (GeneID 57727)	1	3	63.8	active
RYR1 (GeneID 6261)	1	1	29.1	active
RYR1 (GeneID 6261)	1	2	33.6	active
RYR1 (GeneID 6261)	1	3	36.7	active
ADAM17 (GeneID 6868)	1	1	46.3	active
ADAM17 (GeneID 6868)	1	2	43.6	active
ADAM17 (GeneID 6868)	1	3	46.1	active
